Measurements taken from EP4669671A1.
These are yes or no findings as the source states them, for the method shown. Some binding calls cover weakened binding; strength is not graded here.

B1: anti-IL2RA antibody 5D9 (antibody, V domains shown)
VH: EVQLVESGGGLVQPGGSLRLSCAASGFTVSSNYMSWVRQTPGKGLELVSFIYSGGITSYADSVRGRFTISRDNSKNTLYLQMNSLRAEDTAVYYCARDDYSNYFDYWGQGTLVTVSS
VL: DIQMTQSPSSVSASVGDRVTITCRASQGISNWLAWYQQKPGKAPKLLIFAASSLQSGVPSRFSGSGSGTDFTLTISSLQPEDFATYYCQQAKSFPITFGQGTRLEIK
B2: anti-IL2RA antibody 7B5 (antibody, V domains shown)
VH: EVQLQQWGAGLLKPSETLSLTCAVYGGSFSGYYWNWIRQPPGKGLEWIGESDHSGSTHFNPSLKSRVTISLDTSKNQFSLKLNSVTAADTAVYFCARAPDYGDFDHWGQGILVTVSS
VL: DIQMTQSPDSLAVSLGERATINCRSSQSVLHSSTNKRYLAWYQQKPRQPPKLLIYWTSTRESGVPDRFSGSGSGTDFTLTISSLQAEDVAVYFCQQYYSTPYTFGQGTKLEIK

Target: His-tagged recombinant monkey (Cynomolgus monkey, or Macaca fascicularis) IL2RA protein (Sino Biological, Inc., Cat#: 90265-C08H) (Cynomolgus monkey (Macaca fascicularis))
Assay: SPR (Biacore 8K), antibody captured on Protein A chip, His-tagged IL2RA as analyte

| Binder | binding |
| --- | --- |
| B1 | binds |
| B2 | binds |
